# Test results from publication PMC7177722.
# By UniProt entry, the sequences of proteins in these tests, tags left out.
# UniProt P15531: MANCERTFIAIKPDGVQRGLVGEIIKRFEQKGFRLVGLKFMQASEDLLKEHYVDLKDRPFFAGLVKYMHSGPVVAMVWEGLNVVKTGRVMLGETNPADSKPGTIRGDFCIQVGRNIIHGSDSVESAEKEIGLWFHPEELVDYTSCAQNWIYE
# No constants are given. Whether binding was seen depends on the method and setting. In cells and extracts the contact can be indirect. Some binding calls cover weakened binding; strength is not graded here.
# Molecular target: mCherry-NME1 (human) (UniProt P15531)
# Test: FRET or BRET; FRET-FLIM (TCSPC) in live transfected HeLa cells at 37 °C; donor EGFP fusion, acceptor mCherry fusion; fraction of donors that experience FRET (DF) from a double-exponential fit; whole cells, and nucleus and cytoplasm apart; cells not irradiated or irradiated with 15 Gy gamma rays (Co-60)
row,Substance,binding
1,EGFP-NME1 (from UniProt P15531 1-152),binds
2,NME1-EGFP (from UniProt P15531 1-152),binds
